Measured values: patent US20020152485A1
No constants are given. Whether binding was seen depends on the method and setting. Some results given as binding are weak or reduced against the parent protein; the word gives no strength. Sequences can lack the tags named with a protein.

Sequences of proteins named here, by UniProt entry; tags and fusion partners are left off. Residues count along the entry.
UniProt P04114, residues 28-4563: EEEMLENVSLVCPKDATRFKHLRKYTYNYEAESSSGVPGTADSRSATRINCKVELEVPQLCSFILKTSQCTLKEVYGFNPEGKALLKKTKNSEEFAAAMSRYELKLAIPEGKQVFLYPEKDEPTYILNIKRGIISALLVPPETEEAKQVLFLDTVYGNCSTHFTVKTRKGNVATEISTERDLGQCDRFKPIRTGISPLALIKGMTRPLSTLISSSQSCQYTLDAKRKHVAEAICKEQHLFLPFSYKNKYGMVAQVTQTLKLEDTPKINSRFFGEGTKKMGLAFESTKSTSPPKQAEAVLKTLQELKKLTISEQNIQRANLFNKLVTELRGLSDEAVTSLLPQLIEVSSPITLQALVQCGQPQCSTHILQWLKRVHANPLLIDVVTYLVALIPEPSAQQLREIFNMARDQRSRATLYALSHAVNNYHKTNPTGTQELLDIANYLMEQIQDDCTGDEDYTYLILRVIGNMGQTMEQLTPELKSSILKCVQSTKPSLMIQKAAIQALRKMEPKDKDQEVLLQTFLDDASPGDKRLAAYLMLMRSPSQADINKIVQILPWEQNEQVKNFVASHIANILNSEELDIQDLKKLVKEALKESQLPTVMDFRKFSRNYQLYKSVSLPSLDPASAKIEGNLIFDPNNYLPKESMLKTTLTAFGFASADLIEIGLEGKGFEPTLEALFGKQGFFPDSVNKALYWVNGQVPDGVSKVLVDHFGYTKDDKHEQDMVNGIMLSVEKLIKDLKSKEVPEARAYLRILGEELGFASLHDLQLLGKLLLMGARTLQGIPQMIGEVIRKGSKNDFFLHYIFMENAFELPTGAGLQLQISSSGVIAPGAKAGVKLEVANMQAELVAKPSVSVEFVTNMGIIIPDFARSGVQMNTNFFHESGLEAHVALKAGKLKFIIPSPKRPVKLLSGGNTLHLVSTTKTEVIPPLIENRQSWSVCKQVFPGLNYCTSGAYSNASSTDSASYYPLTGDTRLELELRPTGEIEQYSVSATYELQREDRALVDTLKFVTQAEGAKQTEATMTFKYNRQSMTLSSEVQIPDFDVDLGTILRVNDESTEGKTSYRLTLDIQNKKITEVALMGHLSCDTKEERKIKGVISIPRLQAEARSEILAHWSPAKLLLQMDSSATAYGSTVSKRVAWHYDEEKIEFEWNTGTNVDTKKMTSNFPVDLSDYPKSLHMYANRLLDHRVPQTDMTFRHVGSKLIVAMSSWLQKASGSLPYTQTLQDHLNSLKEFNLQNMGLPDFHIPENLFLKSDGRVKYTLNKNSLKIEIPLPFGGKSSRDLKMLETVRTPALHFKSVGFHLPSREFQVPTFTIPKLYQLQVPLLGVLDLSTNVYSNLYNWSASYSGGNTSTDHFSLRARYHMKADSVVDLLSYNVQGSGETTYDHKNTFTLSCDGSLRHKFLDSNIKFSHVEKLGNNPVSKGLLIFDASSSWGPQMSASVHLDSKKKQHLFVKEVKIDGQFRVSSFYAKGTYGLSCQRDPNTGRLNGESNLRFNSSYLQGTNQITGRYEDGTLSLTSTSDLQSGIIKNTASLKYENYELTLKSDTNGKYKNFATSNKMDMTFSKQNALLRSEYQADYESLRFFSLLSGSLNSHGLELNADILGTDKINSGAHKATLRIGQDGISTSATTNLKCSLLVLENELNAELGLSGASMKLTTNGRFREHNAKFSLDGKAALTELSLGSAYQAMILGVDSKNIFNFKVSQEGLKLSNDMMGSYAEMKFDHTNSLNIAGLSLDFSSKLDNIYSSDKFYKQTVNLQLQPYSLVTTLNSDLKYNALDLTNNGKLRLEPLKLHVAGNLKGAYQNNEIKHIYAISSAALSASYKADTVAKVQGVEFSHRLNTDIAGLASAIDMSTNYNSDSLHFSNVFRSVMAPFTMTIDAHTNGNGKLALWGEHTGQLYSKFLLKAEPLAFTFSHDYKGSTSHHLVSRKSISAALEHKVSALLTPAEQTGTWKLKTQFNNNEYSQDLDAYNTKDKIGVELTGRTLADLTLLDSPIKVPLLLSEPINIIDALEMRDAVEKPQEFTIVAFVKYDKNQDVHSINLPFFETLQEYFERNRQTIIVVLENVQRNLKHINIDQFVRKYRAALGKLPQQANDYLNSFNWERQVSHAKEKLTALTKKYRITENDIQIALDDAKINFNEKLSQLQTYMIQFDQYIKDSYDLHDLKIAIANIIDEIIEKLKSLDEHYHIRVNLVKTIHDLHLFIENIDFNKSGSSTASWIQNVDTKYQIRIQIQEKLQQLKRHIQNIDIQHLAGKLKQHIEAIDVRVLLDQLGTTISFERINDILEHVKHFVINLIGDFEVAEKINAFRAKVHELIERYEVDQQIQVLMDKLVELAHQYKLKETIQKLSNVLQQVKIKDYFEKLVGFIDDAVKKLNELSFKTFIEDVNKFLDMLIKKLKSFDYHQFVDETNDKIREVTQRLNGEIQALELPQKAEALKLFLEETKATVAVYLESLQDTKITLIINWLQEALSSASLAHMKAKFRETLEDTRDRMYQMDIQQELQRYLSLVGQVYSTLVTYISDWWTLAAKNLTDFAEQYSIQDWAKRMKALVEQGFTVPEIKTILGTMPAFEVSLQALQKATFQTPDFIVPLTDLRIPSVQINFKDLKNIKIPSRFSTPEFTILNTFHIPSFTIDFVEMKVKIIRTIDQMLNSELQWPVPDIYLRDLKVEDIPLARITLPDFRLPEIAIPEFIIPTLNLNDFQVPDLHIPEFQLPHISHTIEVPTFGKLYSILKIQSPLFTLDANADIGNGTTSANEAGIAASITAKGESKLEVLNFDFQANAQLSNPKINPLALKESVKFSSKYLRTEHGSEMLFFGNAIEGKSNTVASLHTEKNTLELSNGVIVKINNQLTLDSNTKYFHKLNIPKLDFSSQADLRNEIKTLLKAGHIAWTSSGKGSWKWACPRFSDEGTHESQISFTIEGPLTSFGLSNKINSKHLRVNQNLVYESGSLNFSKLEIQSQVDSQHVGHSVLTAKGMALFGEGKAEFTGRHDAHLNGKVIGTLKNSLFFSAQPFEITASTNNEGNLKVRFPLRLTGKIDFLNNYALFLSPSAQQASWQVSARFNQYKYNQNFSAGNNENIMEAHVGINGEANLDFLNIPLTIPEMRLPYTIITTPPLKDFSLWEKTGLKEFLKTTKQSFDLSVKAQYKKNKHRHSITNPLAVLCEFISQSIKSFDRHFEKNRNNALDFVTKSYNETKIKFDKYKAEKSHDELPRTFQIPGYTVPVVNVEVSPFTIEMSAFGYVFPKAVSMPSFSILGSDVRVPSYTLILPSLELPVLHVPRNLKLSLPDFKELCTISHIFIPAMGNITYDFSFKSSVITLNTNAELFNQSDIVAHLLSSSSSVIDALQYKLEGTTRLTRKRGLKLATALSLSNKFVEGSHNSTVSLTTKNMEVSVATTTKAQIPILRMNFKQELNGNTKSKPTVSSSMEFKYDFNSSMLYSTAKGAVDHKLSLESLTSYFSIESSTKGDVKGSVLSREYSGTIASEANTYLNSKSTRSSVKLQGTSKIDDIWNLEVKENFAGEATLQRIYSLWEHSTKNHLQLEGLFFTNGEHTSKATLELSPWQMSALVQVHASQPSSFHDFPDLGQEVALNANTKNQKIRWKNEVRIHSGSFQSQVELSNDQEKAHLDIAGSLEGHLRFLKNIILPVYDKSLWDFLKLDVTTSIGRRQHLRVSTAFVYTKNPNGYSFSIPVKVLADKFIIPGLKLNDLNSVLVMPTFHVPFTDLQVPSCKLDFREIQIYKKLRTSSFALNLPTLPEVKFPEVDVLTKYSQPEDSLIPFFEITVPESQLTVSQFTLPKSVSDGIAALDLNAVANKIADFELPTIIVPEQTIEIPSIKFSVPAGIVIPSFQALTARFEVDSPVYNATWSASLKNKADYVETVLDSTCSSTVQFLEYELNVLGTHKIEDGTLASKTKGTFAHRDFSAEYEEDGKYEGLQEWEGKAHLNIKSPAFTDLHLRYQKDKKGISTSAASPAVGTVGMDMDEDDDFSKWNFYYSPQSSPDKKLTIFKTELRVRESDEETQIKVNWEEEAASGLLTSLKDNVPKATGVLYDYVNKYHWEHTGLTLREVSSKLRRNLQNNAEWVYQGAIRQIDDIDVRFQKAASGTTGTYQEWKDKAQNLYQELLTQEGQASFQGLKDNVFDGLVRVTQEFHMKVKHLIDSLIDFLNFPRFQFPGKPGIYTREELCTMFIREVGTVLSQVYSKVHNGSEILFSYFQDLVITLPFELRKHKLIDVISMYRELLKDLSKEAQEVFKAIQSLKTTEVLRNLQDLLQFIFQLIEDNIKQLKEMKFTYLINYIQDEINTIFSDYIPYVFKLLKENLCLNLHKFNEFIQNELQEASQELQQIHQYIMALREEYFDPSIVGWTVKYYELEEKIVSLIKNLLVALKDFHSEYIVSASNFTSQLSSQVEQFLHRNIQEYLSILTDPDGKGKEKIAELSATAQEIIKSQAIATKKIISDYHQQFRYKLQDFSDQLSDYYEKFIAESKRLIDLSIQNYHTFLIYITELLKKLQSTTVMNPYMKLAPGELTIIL

Key:
[1] = biological target: native human low density lipoprotein (LDL) (human) (UniProt P04114); experiment: affinity coelectrophoresis (ACE): 125I-LBP-2 run through LDL cast in agarose
[2] = biological target: native human low density lipoprotein (LDL) (human) (UniProt P04114); experiment: ACE self-competition: fixed cold LDL and radiolabeled LBP-2, increasing cold LBP-2
[3] = biological target: native human low density lipoprotein (LDL) (human) (UniProt P04114); experiment: affinity coelectrophoresis (ACE): 125I-labeled clone 26 LBP-2 run through LDL cast in agarose
[4] = biological target: native human low density lipoprotein (LDL) (human) (UniProt P04114); experiment: ACE competition: fixed cold LDL and radiolabeled clone 26 LBP-2, increasing cold clone 26 LBP-2
[5] = biological target: native human low density lipoprotein (LDL) (human) (UniProt P04114); experiment: plaque-lift expression screen of a rabbit aorta cDNA phage library; membranes incubated with native human LDL (4 ug/ml), detected with sheep anti-human LDL antibodies; phage-expressed protein

Measured: binding

B1: recombinant rabbit LBP-2 clone 26 (6-His tag) (protein, not shown: small tags and cut ends)
chain: PPPPQQPQPPPEGGAARAGGPARPVSLREVVRYLGGSSGAGGRLTRGRVQGLLEEEAAARGRLERTRLGALALPRGDRPGRAPPAASARAARNKRAGEERVLEKEEEEEEEEDDEDDDDDVVSEGSEVPESDRPAGAQHHQLNGGERGPQTAKERAKEWSLCGPHPGQEEGRGPAAGSGTRQVFSMAALSKEGGSASSTTGPDSPSPVPLPPGKPALPGADGTPFGCPAGRKEKPADPVEWTVMDVVEYFTEAGFPEQATAFQEQEIDGKSLLLMQRTDVLTGLSIRLGPALKIYEHHIKVLQQGHFEDDDPEGFLG
modifications: 125I-iodinated (Iodobeads) where used as the radiolabeled species in ACE assays
binds: all assays above
